Data: article PMC12030497, “Plasma Protein Binding, Biostability, Metabolite Profiling, and CYP450 Phenotype of TPB15 Across Different Species: A Novel Smoothened Inhibitor for TNBC Therapy” (Pharmaceutics, 2025)

Assay: Non-specific binding of TPB15 to ultrafiltration tubes

SMILES: O=C(Nc1ccc(Cl)c(-c2nnc3c(Cl)cccn23)c1)c1ccc(Cl)nc1Cl [TPB15]
- NSB (%) (4 μg/mL in plasma ultrafiltrate): 1.75 ± 0.16%
- NSB (%) (8 μg/mL in plasma ultrafiltrate): 2.76 ± 0.27%
- NSB (%) (16 μg/mL in plasma ultrafiltrate): 2.67 ± 0.34%
- average NSB (mean of low, medium and high concentrations): 2.39 ± 0.46%
